Laboratory results reported in PubChem BioAssay AID540276 (National Center for Advancing Translational Sciences (NCATS), 2011).
About 5,400 (1.8%) of roughly 300,000 compounds were called active. Inconclusive means that the source gave no clear call. Such entries were picked first, then a sample of the others. Calls come from the whole dose curve; tested in HEK293 cells. Potencies of inconclusive entries are doubtful fits and often do not repeat.

Assay: qHTS for inhibitors of binding or entry into cells for Marburg Virus
Conditions: Marburg virus pseudotyped entry inhibition, cell reporter; series mostly up to 37.8 µM
Potency is the fitted concentration of half-maximal effect.

Structure (SMILES) | Potency
Cc1noc(C)c1CSc1nc2sc3c(c2c(=O)n1C)CCCC3 | inconclusive: 29.1 µM [inhibitor, single point]
C=CCn1c(SCC(=O)NCC(=O)OCC)nnc1-c1cccc(OC)c1 | inconclusive: 17.8 µM [inhibitor, single point]
Cc1occc1-c1nnc(SCCCC(=O)c2ccc(F)cc2)n1C | inconclusive: 22.4 µM [inhibitor, single point]
Cc1cc(SCNC(=O)c2ccccc2)ncn1 | inactive
Cn1cc(/C=N/n2cnc3scc(-c4ccc(Cl)cc4)c3c2=O)c2ccccc21 | inconclusive: 0.631 µM [inhibitor, full curve, poor fit]
CN(C1CCCC1)C1CCN(C(=O)CNC(=O)/C=C/c2ccc(F)cc2)CC1 | inconclusive: 0.103 µM [activator, full curve, poor fit]
CC(Oc1cccc(Cl)c1)C(=O)Nc1cc(S(=O)(=O)N2CCCCC2)ccc1N1CCOCC1 (stereo not given) | inconclusive: 35.5 µM [inhibitor, single point]
COC(=O)C1=CN(Cc2ccc(OC)c(OC)c2)C=C(C(=O)OC)C1c1cccc(OC)c1OC | inconclusive: 0.112 µM [inhibitor, full curve, poor fit]
COc1cc(/C=C2\CC/C(=C\c3cc(OC)c(O)c(OC)c3)C2=O)cc(OC)c1O | inconclusive: 11.2 µM [inhibitor, partial curve, poor fit]
O=C1CN(C(=O)c2cccc(Br)c2)c2ccccc2N1 | inconclusive: 3.55 µM [inhibitor, partial curve, poor fit]
O=C(O)CCSc1nnc(-c2ccc3c(c2)OCO3)o1 | inconclusive: 4.61 µM [inhibitor, full curve, poor fit]
CCC(C)(C)NC(=O)c1ccccc1Oc1ccccc1 | inconclusive: 8.91 µM [inhibitor, partial curve, poor fit]
O=C(CSc1nnc(-c2cc3ccccc3cc2O)n1Cc1ccco1)N1CCc2ccccc2C1 | inconclusive: 5.8 µM [inhibitor, partial curve, poor fit]
O=C(Cc1ccc(Cl)cc1)NNC(=O)Nc1cccc2ccccc12 | inconclusive: 2.82 µM [activator, single point]
CCC(c1nnnn1C(C)(C)CC)N(CCCO)Cc1cc2cc(C)cc(C)c2[nH]c1=O (stereo not given) | inconclusive: 25.1 µM [inhibitor, single point]
O=C(CNCC1CCCO1)NCc1ccco1 (stereo not given) | inactive
COc1ccc2nc(NC(=O)CSCC(=O)Nc3cc(C)on3)sc2c1 | inconclusive: 3.55 µM [activator, partial curve, poor fit]
O=C(O)c1ccc(-n2cccn2)c([N+](=O)[O-])c1 | inconclusive: 3.16 µM [activator, single point]
O=C(CN(C(=O)Cn1nnc(-c2ccc(F)cc2)n1)c1cnc2ccccc2c1)NCC1CCCO1 (stereo not given) | inconclusive: 3.98 µM [inhibitor, partial curve, poor fit]
Cc1ccc(OCCC(=O)OC(C)C(=O)Nc2c(C)n(C)n(-c3ccccc3)c2=O)cc1 (stereo not given) | inconclusive: 12.6 µM [activator, partial curve, poor fit]
Cc1ccc(C(=O)N/N=C2/NC(=O)CC(C(=O)Nc3ccccc3)S2)cc1 (stereo not given) | inconclusive: 0.0891 µM [inhibitor, full curve, poor fit]
COc1ccc(N(C(=O)COc2ccc(F)cc2)S(=O)(=O)c2ccc(C)cc2)cc1 | inconclusive: 7.08 µM [inhibitor, partial curve, poor fit]

A draw from above in order of molecular weight, low to high.
Structure (SMILES) | Potency
COc1cc(/C=C2\CC/C(=C\c3cc(OC)c(O)c(OC)c3)C2=O)cc(OC)c1O | inconclusive: 11.2 µM [inhibitor, partial curve, poor fit]
CCC(c1nnnn1C(C)(C)CC)N(CCCO)Cc1cc2cc(C)cc(C)c2[nH]c1=O (stereo not given) | inconclusive: 25.1 µM [inhibitor, single point]
O=C(CN(C(=O)Cn1nnc(-c2ccc(F)cc2)n1)c1cnc2ccccc2c1)NCC1CCCO1 (stereo not given) | inconclusive: 3.98 µM [inhibitor, partial curve, poor fit]

The listing continues:

Structure (SMILES) | Potency
N#CC1=C2SCC(O)(c3ccccc3)N2C(=O)CC1c1ccccc1F (stereo not given) | inconclusive: 1.64 µM [inhibitor, full curve, poor fit]
COc1cc(OC)cc(C(=O)Nc2ncc3c(n2)CC(C)(C)CC3=O)c1 | inconclusive: 1.26 µM [activator, single point]
CCOc1ccccc1C(=O)NCC(=O)NCCSc1ccc(Br)cc1 | inactive
O=c1oc2ccccc2cc1-c1cn(-c2ccccc2)c(=S)[nH]1 | inconclusive: 1.41 µM [inhibitor, partial curve, poor fit]
Cc1ccc(OCCCCn2nnc3sc4c(c3c2=O)CCCC4)cc1 | inactive
Cc1cc2oc(=O)cc(CN3CCC(C)CC3)c2c(C)c1Cl | inconclusive: 1.83 µM [activator, full curve, poor fit]
CCOc1ccc(Cc2c(C)[nH]c3ccc(C(=O)O)cc3c2=S)cc1 | inactive
Cc1ccc(NC(=O)CN2CCN(C(=O)c3ccco3)CC2)cc1 | inconclusive: 6.31 µM [inhibitor, single point]
CCNC(=S)Nc1ccc(Cl)cc1Cl | inactive
C[C@@H](N)[C@@H](O)c1ccc(O)c(O)c1 | active: 12.5 µM
Cc1ccc(OCCC(=O)NNC(=O)c2cc(C)oc2C)cc1 | inconclusive: 35.5 µM [activator, single point]
CC(=O)Nc1ccc(NC(=O)C(C)OC(=O)c2ccccc2C(=O)c2ccc(Cl)c([N+](=O)[O-])c2)cc1 (stereo not given) | inconclusive: 12.6 µM [inhibitor, partial curve, poor fit]
COc1ccc(C(=O)Nc2cccc(C(=O)N3CCN(C)CC3)c2)cc1 | inactive
CCn1c(=O)c2c(nc3n2CC(C)CN3CCc2ccccc2)n(C)c1=O (stereo not given) | inconclusive: 14.6 µM [inhibitor, single point]
Cc1sc(NC(=O)COc2cccc(-n3cnnn3)c2)c(C#N)c1C | inconclusive: 29.1 µM [inhibitor, single point]
O=C(NCCc1ccccc1)C1=COCCO1 | inconclusive: 5.01 µM [activator, single point]
Cc1ccc(Nc2nc(N)nc(CN3CCN(Cc4ccc5c(c4)OCO5)CC3)n2)cc1Cl | inconclusive: 16.4 µM [inhibitor, single point]
CN(C)CCNC(=O)C12CC3(C)CC(C)(CC(C)(C3)C1)C2 | inconclusive: 35.5 µM [inhibitor, single point]
COc1ccccc1NC(=S)NC12CN3CN(CN(C3)C1)C2 | inconclusive: 5.62 µM [inhibitor, single point]
Cc1ccc(NC(=O)c2nc(S(C)(=O)=O)ncc2N(Cc2ccco2)Cc2cccs2)c(C)c1 | inconclusive: 35.5 µM [inhibitor, single point]
COC(=O)C/C=C/[C@@H](C)[C@@H](/C=N/OC[C@H]1O[C@H](c2ccccc2)C=C[C@@H]1Oc1ccc(OC)cc1)NS(=O)(=O)c1ccc(C)cc1 | inconclusive: 25.9 µM [inhibitor, single point]
Cc1ccc(C(=O)Nc2ccc(S(=O)(=O)N3CCC(c4nc5ccccc5s4)CC3)cc2)cc1 | inactive

Structure (SMILES) | Potency
O=C(CSc1ccccc1)Nc1nnc(C2CC2)s1 | inconclusive: 35.5 µM [inhibitor, single point]
Cc1cc(Br)ccc1OCCCCNCCO | inconclusive: 29.1 µM [inhibitor, single point]
O=C(/C=C/c1c(Cl)cccc1Cl)Nc1ccncc1 | inconclusive: 20.6 µM [activator, partial curve]
O=C(NO)c1ccccc1O | inactive
CC(=O)Nc1cc([As](=O)(O)O)ccc1O | inactive
O=C(Nc1cccc(F)c1)[C@H](CSCc1ccccc1)N1Cc2ccccc2C1=O | inconclusive: 10 µM [inhibitor, partial curve, poor fit]
Cc1cccc(N(C(=O)Cc2cccs2)C(C(=O)NC2CCCC2)c2ccncc2)c1 (stereo not given) | inactive
CCn1c(=O)c([N+](=O)[O-])c(NCCc2ccc(OC)c(OC)c2)c2ccccc21 | inconclusive: 29.1 µM [inhibitor, single point]
COc1ccc(NC(=O)Nc2ccccc2C(N)=O)cc1OC | inactive
COc1cc(-c2cc(OC)c(O)c(OC)c2)cc(OC)c1O | inconclusive: 12.6 µM [inhibitor, partial curve, poor fit]
CCOCCCNC(=O)C(c1ccc(Cl)cc1)N(Cc1cccs1)C(=O)c1ccccn1 (stereo not given) | inconclusive: 35.5 µM [inhibitor, single point]
O=C(C=Cc1ccccc1)Nc1cccc(C(=O)NC2CC2)c1 | inconclusive: 8.87 µM [activator, full curve]
Cc1ccc(S(=O)(=O)ON2C(=O)c3cccc4cccc(c34)C2=O)cc1 | inactive
O=C(O)/C=C/c1cnn(-c2ccccc2)c1 | inconclusive: 1.26 µM [inhibitor, full curve, poor fit]
COCCN1C(=O)N(C)C(c2ccccc2)C(C(C)=O)=C1C (stereo not given) | inconclusive: 0.0009 µM [inhibitor]
Cc1ccc(NC2=NCC(=O)N2Cc2cccs2)cc1C | inconclusive: 29.1 µM [inhibitor, single point]
Cn1nnnc1SCc1nc2ccccc2s1 | inconclusive: 22.4 µM [activator, single point]
O=C1NN=C(c2ccc(Br)cc2)CC1c1ccc(Cl)cc1 (stereo not given) | inconclusive: 11.2 µM [inhibitor, partial curve, poor fit]
CCOC(=O)CCN1C(=O)[C@@H]2[C@H]3[C@H](O)[C@H](O)CC(=NNC(=O)OCc4ccccc4)[C@@H]3CC[C@H]2C1=O | inactive
Cc1cccc(C(=O)NNC(=O)c2ccc(F)cc2)c1 | inactive
COc1ccc(/C=C/C(=O)Nc2ccc(S(=O)(=O)Nc3onc(C)c3C)cc2)cc1OC | inconclusive: 11.2 µM [activator, single point]
